Measured values: US20180171002A1 (BERG, published 2018)
Results are given in words; binding and its absence hold for the method and conditions named. Some results given as binding are weak or reduced against the parent protein; the word gives no strength.

Amino acid sequences for entries named in this document (tags omitted). Residues count along the entry.
UniProt P21333, residues 2-2647: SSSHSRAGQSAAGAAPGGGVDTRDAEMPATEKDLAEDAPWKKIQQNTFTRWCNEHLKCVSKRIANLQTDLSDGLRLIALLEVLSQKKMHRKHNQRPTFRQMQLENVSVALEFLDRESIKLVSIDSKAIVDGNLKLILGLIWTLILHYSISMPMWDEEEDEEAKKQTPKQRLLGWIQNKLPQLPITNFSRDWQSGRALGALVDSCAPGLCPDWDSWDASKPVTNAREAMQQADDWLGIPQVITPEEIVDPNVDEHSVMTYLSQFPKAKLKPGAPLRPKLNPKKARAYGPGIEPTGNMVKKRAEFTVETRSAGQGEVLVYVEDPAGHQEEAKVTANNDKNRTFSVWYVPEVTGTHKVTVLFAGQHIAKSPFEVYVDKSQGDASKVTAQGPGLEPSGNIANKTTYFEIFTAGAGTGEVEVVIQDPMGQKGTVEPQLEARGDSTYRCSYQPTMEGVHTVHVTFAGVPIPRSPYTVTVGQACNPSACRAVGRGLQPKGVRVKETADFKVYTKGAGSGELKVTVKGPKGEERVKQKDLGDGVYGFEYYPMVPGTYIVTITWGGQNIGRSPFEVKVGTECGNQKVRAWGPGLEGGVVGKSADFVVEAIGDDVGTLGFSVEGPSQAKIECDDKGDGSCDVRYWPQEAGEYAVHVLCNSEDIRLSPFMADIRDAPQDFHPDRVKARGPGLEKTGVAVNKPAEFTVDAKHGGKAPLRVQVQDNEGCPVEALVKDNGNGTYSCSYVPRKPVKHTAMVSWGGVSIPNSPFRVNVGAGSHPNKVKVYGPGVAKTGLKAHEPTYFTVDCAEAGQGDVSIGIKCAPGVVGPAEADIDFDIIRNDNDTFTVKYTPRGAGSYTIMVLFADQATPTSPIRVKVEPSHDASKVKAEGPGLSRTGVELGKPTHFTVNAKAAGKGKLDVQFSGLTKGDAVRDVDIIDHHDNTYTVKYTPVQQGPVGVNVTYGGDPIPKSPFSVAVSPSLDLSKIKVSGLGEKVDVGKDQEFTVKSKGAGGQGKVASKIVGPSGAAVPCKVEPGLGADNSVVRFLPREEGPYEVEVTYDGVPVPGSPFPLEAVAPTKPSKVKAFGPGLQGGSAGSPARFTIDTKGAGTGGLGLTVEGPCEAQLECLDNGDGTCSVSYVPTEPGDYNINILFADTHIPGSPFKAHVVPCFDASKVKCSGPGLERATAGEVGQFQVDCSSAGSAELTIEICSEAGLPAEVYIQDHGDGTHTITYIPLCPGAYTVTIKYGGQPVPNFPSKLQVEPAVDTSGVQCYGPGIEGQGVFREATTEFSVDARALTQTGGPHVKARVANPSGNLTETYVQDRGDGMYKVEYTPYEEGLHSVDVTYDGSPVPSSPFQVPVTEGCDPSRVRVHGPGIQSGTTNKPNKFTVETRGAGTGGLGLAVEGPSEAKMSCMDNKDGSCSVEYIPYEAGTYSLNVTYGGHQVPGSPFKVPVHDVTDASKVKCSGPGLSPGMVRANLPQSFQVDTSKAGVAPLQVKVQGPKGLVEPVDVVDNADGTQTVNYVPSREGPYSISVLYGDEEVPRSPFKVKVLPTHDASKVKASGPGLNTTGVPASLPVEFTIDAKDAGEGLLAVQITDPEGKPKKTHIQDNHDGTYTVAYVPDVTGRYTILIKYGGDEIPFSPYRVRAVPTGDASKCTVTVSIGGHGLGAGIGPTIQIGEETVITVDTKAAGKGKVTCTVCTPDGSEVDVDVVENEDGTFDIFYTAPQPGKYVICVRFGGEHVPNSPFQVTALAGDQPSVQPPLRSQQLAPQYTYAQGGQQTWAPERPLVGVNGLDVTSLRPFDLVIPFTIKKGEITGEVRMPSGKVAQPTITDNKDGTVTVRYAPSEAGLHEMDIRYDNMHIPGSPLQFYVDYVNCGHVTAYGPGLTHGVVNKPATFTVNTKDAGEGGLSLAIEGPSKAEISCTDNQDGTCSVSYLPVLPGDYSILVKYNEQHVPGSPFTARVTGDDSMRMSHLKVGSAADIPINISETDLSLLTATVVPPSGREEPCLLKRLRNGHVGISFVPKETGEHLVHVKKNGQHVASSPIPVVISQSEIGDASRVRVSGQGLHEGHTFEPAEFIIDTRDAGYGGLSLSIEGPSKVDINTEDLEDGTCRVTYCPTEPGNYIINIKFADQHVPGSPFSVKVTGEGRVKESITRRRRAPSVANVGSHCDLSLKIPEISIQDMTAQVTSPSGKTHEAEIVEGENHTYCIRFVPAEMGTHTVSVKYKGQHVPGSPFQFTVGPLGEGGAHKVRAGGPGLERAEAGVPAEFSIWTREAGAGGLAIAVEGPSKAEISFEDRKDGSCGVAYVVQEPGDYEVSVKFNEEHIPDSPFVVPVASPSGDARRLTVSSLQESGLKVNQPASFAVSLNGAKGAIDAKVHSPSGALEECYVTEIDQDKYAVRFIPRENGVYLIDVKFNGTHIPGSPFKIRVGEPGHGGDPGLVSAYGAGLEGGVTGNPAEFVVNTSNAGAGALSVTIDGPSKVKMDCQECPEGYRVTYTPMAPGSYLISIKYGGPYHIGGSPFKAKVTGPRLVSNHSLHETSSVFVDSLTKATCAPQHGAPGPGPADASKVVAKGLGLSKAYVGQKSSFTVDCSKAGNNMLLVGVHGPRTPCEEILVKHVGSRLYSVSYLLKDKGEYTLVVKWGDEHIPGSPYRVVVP

B1: anti-FLNA murine monoclonal antibody 6E3 (antibody, IgG1, V domains shown)
VH: QVQLQQSGAELMKPGASVKLSCKATGYTFTGYWIEWVKQRPGHGLEWIGEILPGNGSTNCNEKFKGKATFTATTSSNTAYMQLSSLTTEDSAIYYCTTVSYWGQGTTLTVSS
VL: DVVMTQTPLSLPVSLGDQASISCRSSQSLVHSNGNTYLHWYLQKPGQSPNLLIYKVSNRFSGVPDRFTGSGSGTDFTLKISRVEAEDLGVYFCSQSTHVPFTFGSGTKLEIK
notes: also called clone 6E3; mab 6E3
B2: anti-FLNA murine monoclonal antibody 3F4 (antibody, IgG2b, V domains shown)
VH: EVQLQESGPGLAKPSQTLSLTCSVTGYSITSNYWNWIRKFPGNKLEYMGYISFSGSTYYNPSLKSRISITRDTSKNQYYLQLNSVTTEDTATYYCARWNYYAMDYWGQGTSVTVSS
VL: DFLLTQSPAILSVSPGERVSFSCRASQSIGTNIHWYQQRTNGSPRLLIKFASESISGIPSRFSGSGSGTDFTLTINSVESEDIADYYCQQSNSWPYTFGGGTKLEIK
notes: also called clone 3F4
B3: anti-FLNA murine monoclonal antibody 2C12 (antibody, IgG1, V domains shown)
VH: QVQLKQSGPGLVQPSQSLSITCTVSGFSLTNYGVHWVRQSPGKGLEWLGVIWRGGSTDYNAAFMSRLSITKDNSKSQVFFKMNSLQADDTAIYFCALRGNYVHYYLMDYWGQGTSVTVSS
VL: DIQVTQTPSSLSASLGDRVTISCRASQDISNYLNWYQQKPDGTVKLLIYYTSRLHSGVPSRFSGSGSGTDYSLTISNLDQEDIATYFCQQGNTLPPTFGGGTNLEIK
notes: also called clone 2C12

Key:
[1] = target: T1, peptides containing motif ERPLVGV (linear 15 mer peptides of the FLNA array) (human); assay: linear 15 mer peptide array
T1 sequence (peptide): ERPLVGV

[2] = target: FLNA (standards and FLNA in human serum or plasma, Examples 5 and 6) (human) (UniProt P21333); assay: sandwich ELISA, 6E3 coated as capture
[3] = target: FLNA (standards and FLNA in human serum or plasma, Examples 5 and 6) (human) (UniProt P21333); assay: sandwich ELISA, 6E3 capture, biotin-linked 3F4 detection
[4] = target: FLNA (standards and FLNA in human serum or plasma, Examples 5 and 6) (human) (UniProt P21333); assay: immunoprecipitation from human serum with resins of 2C12, 3F4 and 6E3 used together, then MRM
[5] = target: T1, peptides containing motif ERPLVGV (linear 15 mer peptides of the FLNA array) (human); assay: HiSense linear peptide array (15 mer peptides of FLNA aa 1443-2131), ELISA value per peptide; the antibody is named by the legend, not on the sheet

binding [1]	binding [2]	binding [3]	binding [4]	binding [5]	Binder
binds	binds	binds	binds	binds	B1
		binds	binds		B2
			binds		B3
